No constants are given. Whether binding was seen depends on the method and setting. Binding seen in cells or lysates may run through a third protein. These calls come from enrichment with a bait or labelling near it, and not all partners need be listed.
Biological target: NaV1.5, endogenous in mouse heart (mouse (endogenous in heart)) (UniProt Q9JJV9)
Assay: affinity purification with mass spectrometry; NaV1.5 immunoprecipitated from WT or cFgf13^KO mouse hearts (n = 3 each); co-immunoprecipitated proteins identified by mass spectrometry; the named hits are depleted in KO compared with WT hearts

Sequences of proteins named here, by UniProt entry; tags and fusion partners are left off.
UniProt Q64727: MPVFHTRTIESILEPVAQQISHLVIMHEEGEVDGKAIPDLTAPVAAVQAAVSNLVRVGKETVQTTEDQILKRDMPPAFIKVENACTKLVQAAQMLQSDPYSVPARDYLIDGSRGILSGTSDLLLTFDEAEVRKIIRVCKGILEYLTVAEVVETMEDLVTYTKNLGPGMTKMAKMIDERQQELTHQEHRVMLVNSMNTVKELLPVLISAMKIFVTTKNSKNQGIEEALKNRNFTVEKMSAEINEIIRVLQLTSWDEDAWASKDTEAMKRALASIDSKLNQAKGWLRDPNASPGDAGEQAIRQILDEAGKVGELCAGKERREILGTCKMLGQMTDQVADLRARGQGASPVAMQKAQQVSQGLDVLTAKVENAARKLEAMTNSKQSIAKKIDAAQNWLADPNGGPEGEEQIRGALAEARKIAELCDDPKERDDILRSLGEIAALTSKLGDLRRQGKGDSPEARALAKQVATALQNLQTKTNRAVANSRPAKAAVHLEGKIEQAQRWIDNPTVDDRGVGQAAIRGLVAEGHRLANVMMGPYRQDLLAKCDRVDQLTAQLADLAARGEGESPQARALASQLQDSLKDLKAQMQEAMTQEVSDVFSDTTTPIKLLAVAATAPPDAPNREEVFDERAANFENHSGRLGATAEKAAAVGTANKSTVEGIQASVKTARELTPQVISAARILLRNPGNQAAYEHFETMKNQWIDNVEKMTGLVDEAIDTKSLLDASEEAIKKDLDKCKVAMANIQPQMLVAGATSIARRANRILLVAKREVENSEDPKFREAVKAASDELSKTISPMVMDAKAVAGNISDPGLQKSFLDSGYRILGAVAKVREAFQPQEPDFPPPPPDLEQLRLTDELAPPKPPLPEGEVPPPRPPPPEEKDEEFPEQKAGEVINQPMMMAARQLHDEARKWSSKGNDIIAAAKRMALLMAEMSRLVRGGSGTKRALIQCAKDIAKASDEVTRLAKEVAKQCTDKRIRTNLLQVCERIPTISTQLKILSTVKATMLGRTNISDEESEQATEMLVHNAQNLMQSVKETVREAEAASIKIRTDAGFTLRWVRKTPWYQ
UniProt Q02248: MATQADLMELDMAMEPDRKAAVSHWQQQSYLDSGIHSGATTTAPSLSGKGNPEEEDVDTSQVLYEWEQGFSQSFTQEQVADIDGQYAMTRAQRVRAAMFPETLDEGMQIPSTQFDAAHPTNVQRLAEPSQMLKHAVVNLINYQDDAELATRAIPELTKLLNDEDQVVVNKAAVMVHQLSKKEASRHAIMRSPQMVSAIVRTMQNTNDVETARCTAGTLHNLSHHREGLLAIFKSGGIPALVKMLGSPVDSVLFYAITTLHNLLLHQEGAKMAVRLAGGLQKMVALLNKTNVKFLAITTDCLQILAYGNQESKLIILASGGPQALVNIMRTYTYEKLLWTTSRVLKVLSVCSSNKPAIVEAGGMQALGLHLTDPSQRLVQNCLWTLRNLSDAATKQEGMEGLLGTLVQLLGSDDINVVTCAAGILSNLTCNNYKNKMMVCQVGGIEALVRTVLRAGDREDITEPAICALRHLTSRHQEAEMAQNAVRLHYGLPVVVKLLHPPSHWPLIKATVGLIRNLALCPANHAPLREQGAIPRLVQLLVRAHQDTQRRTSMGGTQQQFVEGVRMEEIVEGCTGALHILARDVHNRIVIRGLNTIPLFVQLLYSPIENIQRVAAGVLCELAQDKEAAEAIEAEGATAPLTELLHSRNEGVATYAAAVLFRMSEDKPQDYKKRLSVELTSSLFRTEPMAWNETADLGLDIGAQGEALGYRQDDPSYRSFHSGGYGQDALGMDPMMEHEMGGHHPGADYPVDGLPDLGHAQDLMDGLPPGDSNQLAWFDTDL
UniProt Q811D0: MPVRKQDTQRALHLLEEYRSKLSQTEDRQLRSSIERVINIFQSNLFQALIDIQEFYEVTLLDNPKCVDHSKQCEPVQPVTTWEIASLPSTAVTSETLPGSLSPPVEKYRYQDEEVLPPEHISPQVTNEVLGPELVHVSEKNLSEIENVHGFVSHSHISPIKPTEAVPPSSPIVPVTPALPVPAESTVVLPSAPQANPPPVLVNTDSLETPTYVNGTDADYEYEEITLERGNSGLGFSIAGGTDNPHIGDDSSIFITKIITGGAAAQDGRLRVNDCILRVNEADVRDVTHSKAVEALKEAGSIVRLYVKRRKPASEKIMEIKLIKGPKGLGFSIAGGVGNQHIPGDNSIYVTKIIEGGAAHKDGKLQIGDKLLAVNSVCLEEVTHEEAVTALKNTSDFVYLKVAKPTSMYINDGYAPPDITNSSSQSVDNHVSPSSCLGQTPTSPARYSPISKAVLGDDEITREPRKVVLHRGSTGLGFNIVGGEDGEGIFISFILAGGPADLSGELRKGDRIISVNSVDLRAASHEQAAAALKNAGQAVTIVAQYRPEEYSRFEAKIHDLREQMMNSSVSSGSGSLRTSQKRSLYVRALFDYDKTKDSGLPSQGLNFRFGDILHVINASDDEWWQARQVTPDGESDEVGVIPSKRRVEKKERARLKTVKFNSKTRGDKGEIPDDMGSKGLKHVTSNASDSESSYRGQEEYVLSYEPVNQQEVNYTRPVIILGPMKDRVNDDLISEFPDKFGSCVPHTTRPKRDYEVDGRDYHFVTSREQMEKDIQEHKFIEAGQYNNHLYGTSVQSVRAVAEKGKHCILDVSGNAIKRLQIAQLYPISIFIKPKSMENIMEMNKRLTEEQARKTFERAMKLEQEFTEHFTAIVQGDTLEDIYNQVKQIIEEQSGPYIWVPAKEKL
UniProt P23242: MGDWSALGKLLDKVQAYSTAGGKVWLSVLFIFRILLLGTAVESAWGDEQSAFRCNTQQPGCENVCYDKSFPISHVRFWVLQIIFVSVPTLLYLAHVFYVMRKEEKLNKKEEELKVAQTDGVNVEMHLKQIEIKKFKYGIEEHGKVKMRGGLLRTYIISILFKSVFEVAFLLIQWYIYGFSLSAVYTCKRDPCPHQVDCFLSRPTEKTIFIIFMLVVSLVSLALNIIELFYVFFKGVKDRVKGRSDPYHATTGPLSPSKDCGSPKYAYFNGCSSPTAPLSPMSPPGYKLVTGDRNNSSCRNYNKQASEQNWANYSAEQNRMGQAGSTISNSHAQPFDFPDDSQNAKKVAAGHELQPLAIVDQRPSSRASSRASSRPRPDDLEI

| Substance | binding |
| --- | --- |
| protein encoded by Vcl (from UniProt Q64727 1-1066) | binds |
| protein encoded by Ctnnb1 (from UniProt Q02248 1-781) | binds |
| protein encoded by Dlg1 (from UniProt Q811D0 1-905) | binds |
| protein encoded by Gja1 (from UniProt P23242 1-382) | binds |

— article PMC12520690
